At least one compound was matched to its structure with a doubt left.
System: LNCaP xenografts
Assay: LNCaP xenograft model
Format: in vivo, NOD/SCID mice
Details: p=0.001
Procedure: Treatment started 19 days after implantation when the tumors measure ˜200 mm^3. Two independent experiment with 5 mice per group were carried out. J54 and Bicalutamide was dissolved in DMSO and diluted in corn oil 1:10 and administered IP bi-weekly. Sectioning and processing of the tissues were carried out in the FWCC Histology Service, using automated processes and equipment to provide uniform and standardized results. Indirect labeling was with ABC Elite: RTU Vectastain Elite Reagent, Vector #PK-7100; DAB: ImmPact DAB, Vector #SK-4105. Light counterstaining was done with hematoxylin. […] Note the weak pNek1 stain in the tumor from mice treated with J54, in contrast to the increase seen with BIC.
LNCaP Xenograft Model and Immunohistochemistry (IHC): All animals used in this study were approved by LSUHSC IACUC and following ARRIVE guidelines. Male NOD/SCID mice (5 per group) were purchased from Jackson labs. LNCaP cells were injected as described earlier. Mice were treated IP bi-weekly with J54 (5 mg/kg body weight—dose estimation derived from pharmacokinetics study) and/or Bicalutamide (100 mg/kg).
The inventors sought to establish if the addition of J54 could suppress the resurgence of tumor growth of LNCaP xenografts and their latter conversion to CRPC. […]

Q: Which “phosphorylation of Nek1-T141 in tumors (IHC)” value does the source give for `CC(O)(CS(=O)(=O)c1ccc(F)cc1)C(=O)Nc1ccc(C#N)c(C(F)(F)F)c1` (stereo not shown) [BIC, Bicalutamide, reference compound] here?
A: The value was “increased”.
